Assay results from PubChem BioAssay AID651664 (NMMLSC, 2012).
The campaign covered roughly 1,800 compounds. Fewer than 10 were called active.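 Rule for the calls: active = inhibition of granule release above a set limit; inactive = the rest.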 This is one part of the list.

Test: LAMP-1 surface externalization blockers in TALL-104 cells – cell-based, flow cytometry, validation set (AID 651664)
Conditions: TALL-104 LAMP-1 externalization, at 15.2 µM, stronger effect = higher value, stimulated with thapsigargin and PMA

inhibition, inactive:
Cc1n[nH]c(C)c1SCC(=O)Nc1ccc(F)cc1 2.8%, Cc1cc2cc(C(c3nnnn3Cc3ccco3)N3CCc4ccccc43)c(=O)[nH]c2cc1C (stereo not drawn) -1.7%, CS(=O)(=O)c1ccc2nc(NC(=O)C3C4C=CC(C4)C3C(=O)O)sc2c1 (stereo not drawn) 1.6%, CCN(CC)C(=O)N1c2ccccc2C=Cc2ccccc21 1.6%, Cn1c(Sc2ccccc2Cl)c(C=O)c2ccccc21 0.4%, O=C(CN1CC(=O)Oc2ccccc21)OCC(=O)c1cccc(Br)c1 -1.5%, COc1ccc(C(C)=O)cc1CN1C(=O)NC2(CCCCC2)C1=O -0.4%, COc1ccc(/C=N/n2c(SC)nnc(C(C)(C)C)c2=O)cc1 2.6%, CCOc1ccc(/C(O)=C2/C(=O)C(=O)N(CCOCCO)C2c2cccnc2)cc1 (stereo not drawn) -2.1%, c1ccc(CC2CCN(c3nc4ccccc4n4cnnc34)CC2)cc1 40.8%, COc1ccccc1NC(=O)CC1COc2ccccc2O1 (stereo not drawn) -0.3%, O=C1c2sc3nc4ccccc4n3c2C(=O)N1c1ccccc1Cl -0.8%, COc1ccc(NC(=O)CCCSc2nc(-c3ccco3)cc(C(F)(F)F)n2)cc1OC -0.1%, Cc1ccc2[nH]c(=O)c(CN(CC3CCCO3)C(=O)c3ccncc3)cc2c1 (stereo not drawn) -0.4%, CCCSc1nsc(NC(=O)C(c2ccccc2)c2ccccc2)n1 -0.5%, COc1ccc2c(c1)S/C(=C\C(=O)c1ccncc1)N2C -1.5%, O=C(CSc1nnc(-c2ccco2)o1)NC(=O)C1COc2ccccc2O1 (stereo not drawn) 4.2%, O=C(Nc1ccc(F)cc1)c1cccnc1N1CCOCC1 0.7%, CCN1CCN(C(=S)c2ccc(OCC(=O)Nc3ccc(OC)cc3)cc2)CC1 -2.9%, CCCCC1OC23CCCCC2C(C#N)(C(=N)O3)C1(C#N)C#N (stereo not drawn) -1.3%, Nc1n[nH]c(-c2ccc(Br)cc2)c1Cl -6.2%, CC(C)(C)C(=O)C(CO)(Oc1ccc(Cl)cc1)n1cncn1 (stereo not drawn) 45.8%, COc1ccc(S(=O)(=O)N(CCCN2CCOCC2)Cc2cccc3ccccc23)cc1 5.5%, Cc1cccc(C)c1N(CC(=O)Nc1cc(Cl)ccc1Oc1ccccc1)S(C)(=O)=O 1.5%, COc1cc(C(=O)Oc2ccccc2/C=N/NC(=O)c2ccc(Cl)cc2Cl)cc(OC)c1OC -2.6%, COC(=O)c1cnn(-c2cc(Oc3ccccc3)ncn2)c1N 5.4%, CCOc1ccc2[nH]c(=O)c(CN(Cc3cccnc3)C(=O)Nc3ccccc3OC)cc2c1 -0.5%, COc1cc2c(cc1OC)C(=O)CC(C)S2 (stereo not drawn) 0.3%, CC(NC(=O)Nc1nnc(C(F)(F)F)s1)(C(F)(F)F)C(F)(F)F -0.6%, Cn1c(=O)c2c(-c3ccc(C(C)(C)C)cc3)n(N3CCOCC3)cc2n(C)c1=O 0.1%, C=CCN1C(=O)C2(C(C(=O)c3ccc(C)o3)=C(O)C(=O)N2CCCN2CCOCC2)c2ccccc21 (stereo not drawn) -1.9%, O=C(O)CCCC(=O)Nc1ccccc1-n1ccnc1 0.7%, O=C(Nc1ccc(Oc2ccc(NC(=O)C3CCCO3)cc2)cc1)C1CCCO1 (stereo not drawn) 2.3%, COc1ccc2c(c1)Cc1sc(NC(=O)c3ccco3)nc1-2 -3.9%, CCOC(=O)c1cnc(SCC(=O)c2ccc(C)cc2)nc1N -3.6%, CCOC1(OCC)N=C(N)C2(C#N)C(c3cccc(C)c3)C12C#N (stereo not drawn) -0.4%, Cc1cc(/C=N/Nc2ccc([N+](=O)[O-])cn2)c(C)n1-c1ccccc1 2.1%, Cc1cc(C(=O)Nc2ccccc2)c(C)o1 5.7%, O=C(O)Cn1c(SCc2ccccc2)nc2ccccc21 2.7%, O=C(c1ccc(Cl)cc1)c1coc2ccc(O)cc12 1.2%, O=C(c1ccccc1CCc1ccccc1)N1CCN(c2ccccn2)CC1 -2.3%, COCc1nnc(NC(=O)CSCc2ccccc2)s1 5.1%, O=C1CC(C(=O)Nc2ccc(C(=O)O)cc2)C(c2ccccc2)O1 (stereo not drawn) 3.1%, COc1ccc(CN(C)CCc2ccccn2)cc1OC -1.6%, CC(C)(C)c1ccc(CN(Cc2ccco2)Cc2nnnn2C2CCCC2)cc1 2.3%, Cc1cc(C(C)(C)C)cc(S(=O)(=O)NCCO)c1C 4.5%, O=C(c1ccccc1)N(CCN1CCOCC1)C1(C(=O)Nc2ccccc2)CCCCC1 5.2%, O=C(CSc1nnc(CNc2ccc(F)cc2)n1-c1ccccc1)N1CCOCC1 -4.6%, CCn1c(-c2ccccc2)c[nH]c1=S -1.3%, COc1ccc(C(CNC(=O)c2ccc(N3CCCC3=O)cc2)N(C)C)cc1 (stereo not drawn) -2%, Cc1ccc(CNC(=O)c2sccc2-n2cccc2)cc1 0.6%, CCC(COC(=O)Nc1cccc(C)c1)NC(=O)OCC(C)C (stereo not drawn) 0.7%, CCCC(=O)OC1CC(C)N(C(=O)c2ccccc2)c2ccc(C)cc21 (stereo not drawn) -2.7%, O=C(COC(=O)c1cccnc1)c1ccc(Cl)c(Cl)c1 -1.3%, COc1ccc(-n2c(O)c(/C=N/n3cnnc3)c3ccccc3c2=O)cc1 5.7%, Cc1nc2sc(C#N)c(N)c2c2c1CCCC2 -3%, CCn1c(SCC(=O)N2CCCc3ccccc32)nnc1-c1c[nH]c2ccccc12 -0.2%, Cc1ccccc1-c1nc2sc3c(c2c(=O)o1)CCC3 -1.1%, O=C(Nc1ccc2c(c1)oc1ccccc12)N1CCOCC1 -3.4%, O=C1CCC/C1=c1\s/c(=C\c2cccnc2)c(=O)n1-c1ccccc1 -0.5%, CCOC(=O)C1=C(C)N=C2SC(C)C(=O)N2C1c1ccc(OCC)c(OCC)c1 (stereo not drawn) -1.1%, CCN(CC)C(=O)N1CCc2ccccc2C1CN1C(=O)c2ccccc2C1=O (stereo not drawn) -0.8%, O=C(OCc1nnc(-c2ccccc2)o1)c1ccc2ccccc2n1 0.3%, O=C(Cn1cccc1C(=O)c1ccccc1)NCc1ccc2c(c1)OCO2 -2.5%, Cc1ccc(C(=O)NC(=S)Nc2cc(C(F)(F)F)ccc2Cl)cc1 2.1%, CCn1c(=N)n(CC(O)c2ccccc2)c2ccccc21 (stereo not drawn) 0.1%, O=S(=O)(c1ccc(Cl)cc1)c1snnc1-c1ccccc1 -2.8%, COC(=O)C1=CN(CCCN2CCCC2=O)C=C(C(=O)OC)C1c1ccccc1C(F)(F)F 3.5%, Cc1ccccc1NS(=O)(=O)c1ccc2[nH]cc(C(=O)N(C)Cc3ccco3)c(=O)c2c1 -1.6%, CC(=O)c1ccc(NC(=O)Nc2ccc(NS(=O)(=O)c3ccc(C)cc3)cc2)cc1 -2.9%, O=c1cc(-c2ccc(Cl)c(Cl)c2)[nH][nH]1 -1.5%, CCOc1ccccc1NC(=O)c1ccc(S(=O)(=O)N2CCOCC2)cc1 -1.3%, O=C1N/C(=N/Nc2ccccc2)S/C1=C\c1ccccc1 2.3%, COCCCn1c(-c2ccccc2Cl)n[nH]c1=S 4.6%, CC(C)(C)c1ccc(C(=O)Nc2ccccc2NC(=O)c2ccco2)cc1 -5.5%, Nc1cc(=O)[nH]c(SC/C=C/c2ccccc2)n1 -2.4%, O=C(Nc1ccc2c(c1)OCCO2)c1ccc(Br)c(S(=O)(=O)N2CCOCC2)c1 0.7%, CCOc1ccc(-n2nnnc2SCC(=O)c2ccccc2)cc1 2.2%, COc1ccc(-c2[nH]nc3c2C(c2ccoc2)C(C#N)=C(N)O3)cc1 (stereo not drawn) 0.9%, CCCS/C(N)=N/N=C/c1cc(C)ccc1O -0.4%, CCOC(=O)COc1ccc(/C=C2/SC(=Nc3ccccc3)N(Cc3cccnc3)C2=O)cc1OC 0.5%, CCN(CC)C(=O)CSc1ncnc2c1nnn2-c1ccc(OC)cc1 -0.1%, O=C(Nc1ccccc1)N1C2CCC1CC(O)(c1cccnc1)C2 (stereo not drawn) -2%, COc1ccc(CN2CCN(C(=O)c3ccco3)CC2)cc1OCc1ccccc1 -1%, COc1cccc(/C=N/NC(=O)CSc2nnc(C)n2-c2ccccc2)c1O -2.5%, Cc1nn(Cc2ccccc2Cl)c2sc(C(=O)NCc3ccc4c(c3)OCO4)cc12 1.1%, CC(C)c1ccc(Nc2ncccc2C#N)cc1 11.2%, O=C(COC(=O)c1ccccc1)NCc1ccco1 -0.5%, COc1ccc(/C=N/n2cnnc2SCCO)cc1OC 0%, Cc1nn(-c2ccccc2)c2nc(-c3ccco3)cc(C(=O)O)c12 3.1%, Cc1cccc2cc(COC(=O)C(C)C)c(=O)[nH]c12 -1.9%, Cc1ccc(-n2nc3cc(C)c(NC(=O)c4cccnc4)cc3n2)cc1 -4.1%, CC1=CCC(C(=O)N/N=C/c2cccs2)C(c2ccc(F)cc2)C1 (stereo not drawn) -2.4%, CCOC(=O)c1ccc(N2C(=O)CC(Sc3nnc(C)s3)C2=O)cc1 (stereo not drawn) -0.5%, C=C(C)COc1ccc(-c2[nH]ncc2-c2ccc(OC)c(OC)c2)c(O)c1 1.2%, C=CCN1C(=O)CC(C(=O)NC)SC1=Nc1ccc(C(=O)OCC)cc1 (stereo not drawn) -3%, CCc1ccc(Nc2ncccc2C#N)cc1 1.1%, NC(=O)CSc1nnc2sc3ccccc3n12 6.1%
